Assay [1] concerns the target T1, POPDC1-Myc (not stated (human or mouse cDNA cloned)) (UniProt Q8NE79).
T1 sequence: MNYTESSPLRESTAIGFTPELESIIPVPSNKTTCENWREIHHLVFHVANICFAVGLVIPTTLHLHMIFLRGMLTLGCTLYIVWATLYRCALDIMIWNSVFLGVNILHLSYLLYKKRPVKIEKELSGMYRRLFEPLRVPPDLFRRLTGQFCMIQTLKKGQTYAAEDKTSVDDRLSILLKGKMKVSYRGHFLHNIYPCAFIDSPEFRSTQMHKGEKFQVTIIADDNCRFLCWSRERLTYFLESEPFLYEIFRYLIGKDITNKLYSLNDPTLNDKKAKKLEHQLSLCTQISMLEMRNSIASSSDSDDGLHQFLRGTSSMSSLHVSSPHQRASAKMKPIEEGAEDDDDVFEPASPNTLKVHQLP
As to the kind of experiment: co-IP.

In a further assay the target is T2, POPDC1-CFP (human) (UniProt Q8NE79).
T2 sequence: T1 sequence
As to the kind of experiment: SDS-PAGE and Western blot of oligomer bands that withstand SDS. In general terms: Immunoblotting shows a protein as a band on a membrane.

Assay [2] has as its target T3, POPDC1-HA (not stated (human or mouse cDNA cloned)) (UniProt Q8NE79).
T3 sequence: T1 sequence
The assay is described as follows: co-IP.

Assay [3] has as its target T4, POPDC2 with C-terminal NanoLuc or HaloTag (NanoBRET constructs) (human) (UniProt Q9HBU9).
T4 sequence: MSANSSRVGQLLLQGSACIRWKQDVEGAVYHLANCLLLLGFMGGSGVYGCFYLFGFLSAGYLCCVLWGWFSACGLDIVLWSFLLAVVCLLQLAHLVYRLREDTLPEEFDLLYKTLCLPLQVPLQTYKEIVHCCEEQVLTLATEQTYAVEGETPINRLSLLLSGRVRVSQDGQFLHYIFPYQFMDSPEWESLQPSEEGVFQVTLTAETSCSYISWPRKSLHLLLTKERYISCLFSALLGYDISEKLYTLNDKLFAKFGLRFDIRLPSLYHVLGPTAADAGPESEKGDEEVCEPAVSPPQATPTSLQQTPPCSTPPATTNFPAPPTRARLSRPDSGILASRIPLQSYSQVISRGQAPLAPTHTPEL
The assay is described as follows: FRET or BRET. For orientation: Bioluminescence resonance energy transfer reports proximity on the nanometre scale.

In another assay the target is T5, POPDC2-VN155 (human, UniProt Q9HBU9 1-364).
T5 sequence (looked up): T4 sequence
As to the kind of experiment: split reporter.

The next assay deals with T6, POPDC3-Myc (UniProt Q9HBV1).
T6 sequence: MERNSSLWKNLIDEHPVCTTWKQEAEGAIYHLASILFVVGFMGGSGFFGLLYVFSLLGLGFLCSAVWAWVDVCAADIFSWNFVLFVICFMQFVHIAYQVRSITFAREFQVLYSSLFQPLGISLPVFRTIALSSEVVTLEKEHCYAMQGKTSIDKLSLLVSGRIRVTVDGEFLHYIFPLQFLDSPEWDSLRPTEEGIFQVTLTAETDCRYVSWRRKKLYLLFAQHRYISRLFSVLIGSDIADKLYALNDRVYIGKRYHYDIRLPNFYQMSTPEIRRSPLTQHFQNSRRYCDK
The assay is described as follows: co-IP.

The target in assay [4] is T7, POPDC2 (mouse, endogenous in heart) (mouse (endogenous in mouse heart)) (UniProt Q9ES82).
T7 sequence: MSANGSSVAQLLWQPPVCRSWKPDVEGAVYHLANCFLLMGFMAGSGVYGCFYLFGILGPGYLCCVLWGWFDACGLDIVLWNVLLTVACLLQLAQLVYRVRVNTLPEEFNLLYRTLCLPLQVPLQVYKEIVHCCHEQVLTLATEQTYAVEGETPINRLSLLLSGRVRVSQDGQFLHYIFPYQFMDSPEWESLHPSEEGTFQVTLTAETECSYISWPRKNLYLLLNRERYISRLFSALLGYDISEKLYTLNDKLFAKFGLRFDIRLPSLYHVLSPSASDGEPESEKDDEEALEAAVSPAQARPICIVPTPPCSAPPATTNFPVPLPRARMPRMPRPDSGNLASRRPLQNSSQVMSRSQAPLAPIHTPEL
As to the kind of experiment: proximity ligation.

In assay [5] the target is T7, POPDC2 (mouse, endogenous in heart) (mouse (endogenous in mouse heart)). As to the kind of experiment: co-IP.

Numbering of substitutions follows the chain as printed. Names may count otherwise. No constants are given. Whether binding was seen depends on the method and setting. For part of these data: Binding seen in cells or lysates may run through a third protein. Some binding calls cover weakened binding; strength is not graded here. For part of these data: Where a sequence is shown, tags or fusion partners need not be part of it.

B1: POPDC2 W188X-FLAG (domain or fragment, UniProt Q9HBU9 1-187)
chain: MSANSSRVGQLLLQGSACIRWKQDVEGAVYHLANCLLLLGFMGGSGVYGCFYLFGFLSAGYLCCVLWGWFSACGLDIVLWSFLLAVVCLLQLAHLVYRLREDTLPEEFDLLYKTLCLPLQVPLQTYKEIVHCCEEQVLTLATEQTYAVEGETPINRLSLLLSGRVRVSQDGQFLHYIFPYQFMDSPE
Consider B1, for which, in assay [1], the binding entry was “binds”.

B2: POPDC3-FLAG (protein, UniProt Q9HBV1 1-291)
chain: T6 sequence
For the molecule B2, the binding entry (with POPDC1-CFP (human); in assay [2]) was “binds” throughout.

B3: POPDC1 with C-terminal NanoLuc or HaloTag (NanoBRET constructs) (natural protein, human, UniProt Q8NE79 1-360, looked up)
chain: T1 sequence
Turning to B3, the binding entry in assay [3] is given as “binds”.

B4: POPDC1 p.V183F-VC155 (protein, UniProt Q8NE79 1-360)
chain: T1 sequence with V183F
B4: the binding result with POPDC2-VN155 is recorded as “binds”.

B5: POPDC1-VC155 (natural protein, human, UniProt Q8NE79 1-360, looked up)
chain: T1 sequence
Turning to B5, in the assay with POPDC2-VN155, the binding result is reported as “binds”.

B6: POPDC2-FLAG (protein, UniProt Q9HBU9 1-364)
chain: T4 sequence
In the case of B6, the binding result was “binds” with POPDC1-CFP (human), “binds” in assay [1] and “no binding” with POPDC3-Myc.

B7: POPDC2 with C-terminal NanoLuc or HaloTag (NanoBRET constructs) (protein, UniProt Q9HBU9 1-364)
chain: T4 sequence
Regarding B7, the binding entry in assay [3] is recorded as “binds”.

B8: POPDC1 (mouse, endogenous in heart) (protein, UniProt Q9ES83 1-358)
chain: MNSTESIPLAQSTVAGFTSELESLTPVPSNETTCENWREIHHLVFHVANVCFAVGLLIPTTLHLHMILLRVMLSLGCTLYVVWATLYRCALDVMIWNSVFLGINILHLSYLLYKKRPVKIEKELGGVYHRLFEPLRVPPDLFRRLTGQFCMIQTLKRGQVYATEDKTSVDDRLSILLKGRMKVSYRGHFLHNIYPCAFIDSPEFRSTQMHKGEKFQVTIVADDNCRFLCWSRERLTYFLESEPFLYEIFRYLIGKDITNKLYSLNDPTLNDKKVKKLEPQMSLCTQISMLEMRNSITSSSDGEDGLHHFLRGSSSTASLPMSSPQQRASAKMKPIEEGVEDDDEVFVSPDALKVHQLP
For the molecule B8, the binding entry in assay [4] and in assay [5] was “binds” each time.

These data come from publication doi:10.1101/2022.10.13.511879 (bioRxiv, 2022).
